{
  "source": "the supplement of paper PMC9578143",
  "about": "“Small-Molecule Ebselen Binds to YTHDF Proteins Interfering with the Recognition of N^6-Methyladenosine-Modified RNAs” (ACS Pharmacology & Translational Science, 2022)",
  "note": "This is one part of the list. Plates or batches differ in their baseline, so values are only roughly comparable.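 Hits were defined as a z-score below −3.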",
  "data": [
    {"molecular_target": "T1, YTHDF1 YTH domain (aa 365-554) (UniProt Q9BYJ9)", "T1 sequence (whole entry)": "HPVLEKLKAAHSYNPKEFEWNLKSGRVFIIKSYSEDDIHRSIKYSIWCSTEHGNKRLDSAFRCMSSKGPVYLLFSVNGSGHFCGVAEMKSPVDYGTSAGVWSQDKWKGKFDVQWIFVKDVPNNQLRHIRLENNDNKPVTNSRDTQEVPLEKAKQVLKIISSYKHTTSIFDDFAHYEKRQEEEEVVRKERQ", "test": "tryptophan fluorescence intensity z-score (mean); higher = higher fluorescence, less quenching (negative = binding / quenching)", "details": "10 µM", "values": [
      {"smiles": "COc1ccc2c(=O)c(-c3cc4c(cc3OC)OCO4)coc2c1", "note": "(plate: M 15-16)", "tryptophan fluorescence intensity z-score": "inactive: 0.717"},
      {"smiles": "C[N+]1(C)[C@@H]2CC[C@H]1C[C@@H](OC(=O)C(O)c1ccccc1)C2", "note": "(some centres undefined) (plate: M 3-4)", "tryptophan fluorescence intensity z-score": "inactive: -0.382"},
      {"smiles": "COc1ccc2c(c1)OC1(O)COc3cc(OC)c(OC)cc3C1=C2", "note": "(centres undefined) (plate: M 15-16)", "tryptophan fluorescence intensity z-score": "inactive: -0.146"},
      {"smiles": "CN(C)CCC(c1ccc(Cl)cc1)c1ccccn1", "note": "(stereo in doubt) (plate: M 1-2)", "tryptophan fluorescence intensity z-score": "inactive: 0.167"},
      {"smiles": "CC(=O)Nc1ccccc1", "note": "(plate: M 7-8)", "tryptophan fluorescence intensity z-score": "inactive: 0.0168"},
      {"smiles": "C=CC(C1=CC(=O)C=CC1=O)c1ccccc1", "note": "(centres undefined) (plate: M 15-16)", "tryptophan fluorescence intensity z-score": "inactive: -0.352"},
      {"smiles": "COC(=O)[C@H](OC(C)=O)[C@H]1C(C)(C)[C@H](OC(C)=O)[C@@H]2CC3=C4CC(=O)O[C@@H](c5ccoc5)[C@]4(C)CC[C@@H]3[C@@]1(C)C2=O", "note": "(plate: M 13-14)", "tryptophan fluorescence intensity z-score": "inactive: 0.287"},
      {"smiles": "Cc1cc(C(C)(C)C)c(O)c(C)c1CC1=NCCN1", "note": "(plate: M 3-4)", "tryptophan fluorescence intensity z-score": "inactive: 0.245"},
      {"smiles": "CN(C)CCCN1c2ccccc2Sc2ccccc21", "note": "(plate: M 5-6)", "tryptophan fluorescence intensity z-score": "inactive: -0.404"},
      {"smiles": "CC(C)(C(=O)O)c1ccc(C(O)CCCN2CCC(C(O)(c3ccccc3)c3ccccc3)CC2)cc1", "note": "(centres undefined) (plate: M 9-10)", "tryptophan fluorescence intensity z-score": "inactive: -0.098"},
      {"smiles": "COc1c2ccoc2c(OC)c2oc(=O)ccc12", "note": "(plate: M 17-18)", "tryptophan fluorescence intensity z-score": "inactive: 0.239"},
      {"smiles": "COc1ccc([C@@H]2CC(=O)c3c(O)cc(O[C@@H]4O[C@H](CO[C@@H]5O[C@@H](C)[C@H](O)[C@@H](O)[C@H]5O)[C@@H](O)[C@H](O)[C@H]4O)cc3O2)cc1O", "note": "(plate: M 17-18)", "tryptophan fluorescence intensity z-score": "inactive: 0.374"},
      {"smiles": "CN(C)/N=N/c1[nH]cnc1C(N)=O", "note": "(plate: M 1-2)", "tryptophan fluorescence intensity z-score": "inactive: -0.329"},
      {"smiles": "C[N+](C)(C)CCCCCC[N+](C)(C)C", "note": "(plate: M 21-22)", "tryptophan fluorescence intensity z-score": "inactive: 0.125"},
      {"smiles": "Cc1cc(O)c(C=O)c2c1C(=O)Oc1c(C)c(O)c3c(c1O2)C(O)OC3=O", "note": "(centres undefined) (plate: M 15-16)", "tryptophan fluorescence intensity z-score": "inactive: -0.354"},
      {"smiles": "COc1cc(OC)c(C(C)=O)c(O)c1C", "note": "(plate: M 15-16)", "tryptophan fluorescence intensity z-score": "inactive: 0.388"},
      {"smiles": "Cc1onc(-c2c(Cl)cccc2Cl)c1C(=O)N[C@@H]1C(=O)N2[C@@H]1SC(C)(C)[C@@H]2C(=O)O", "note": "(plate: M 1-2)", "tryptophan fluorescence intensity z-score": "inactive: 0.412"},
      {"smiles": "CCOC(=O)[C@H](CCc1ccccc1)N[C@@H](C)C(=O)N1Cc2ccccc2C[C@H]1C(=O)O", "note": "(plate: M 7-8)", "tryptophan fluorescence intensity z-score": "inactive: -0.192"},
      {"smiles": "O=C(O)c1cccc(O)c1O", "note": "(plate: M 17-18)", "tryptophan fluorescence intensity z-score": "inactive: 0.34"}
    ]}
  ]
}
